# From the supplement of paper PMC8728848
# Some of the results follow.
# Legend:
# Assay in all cases: glycan array binding signal (z-score within array); higher = stronger binding
# Conditions in all cases: glycan notation: IUPAC condensed, linker removed
# [1] = target: Gal(b1-2)Gal
# Summary of the method: (§1)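 Glycan array data were curated from 3228 arrays in the Consortium for Functional Glycomics database and kept only where the protein sequence was available. Glycan names were converted to IUPAC-condensed notation, and columns mapping to the same glycan were averaged. The binding signal is a within-array Z-score, averaged across arrays of the same protein sequence at different concentrations or buffers and across linkers. Negative Z-scores can be read as non-binding.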
# [2] = target: Gal(b1-3)Gal
# Summary of the method: as §1
# [3] = target: Gal(b1-3)Gal(b1-4)GlcNAc
# Summary of the method: as §1
# [4] = target: Gal(b1-3)GalNAc
# Summary of the method: as §1
# [5] = target: Gal(b1-3)GalNAc(a1-3)[Fuc(a1-2)]Gal(b1-4)Glc
# Summary of the method: as §1
# [6] = target: Gal(b1-3)GalNAc(a1-3)[Fuc(a1-2)]Gal(b1-4)GlcNAc
# Summary of the method: as §1
# [7] = target: Gal(b1-3)GalNAc(b1-3)Gal
# Summary of the method: as §1
# [8] = target: Gal(b1-3)GalNAc(b1-3)Gal(a1-4)Gal(b1-4)Glc
# Summary of the method: as §1
# [9] = target: Gal(b1-3)GalNAc(b1-4)Gal(b1-4)Glc
# Summary of the method: as §1
# [10] = target: Gal(b1-3)GalNAc(b1-4)[Neu5Ac(a2-3)]Gal(b1-4)Glc
# Summary of the method: as §1
# [11] = target: Gal(b1-3)GlcNAc
# Summary of the method: as §1
# [12] = target: Gal(b1-3)GlcNAc(a1-3)Gal(b1-4)GlcNAc
# Summary of the method: as §1
# [13] = target: Gal(b1-3)GlcNAc(a1-6)Gal(b1-4)GlcNAc
# Summary of the method: as §1
# [14] = target: Gal(b1-3)GlcNAc(b1-2)Man
# Summary of the method: as §1
# [15] = target: Gal(b1-3)GlcNAc(b1-2)Man(a1-3)[Gal(b1-3)GlcNAc(b1-2)Man(a1-6)]Man(b1-4)GlcNAc(b1-4)GlcNAc
# Summary of the method: as §1
# [16] = target: Gal(b1-3)GlcNAc(b1-2)Man(a1-3)[Gal(b1-3)GlcNAc(b1-2)Man(a1-6)]Man(b1-4)GlcNAc(b1-4)[Fuc(a1-6)]GlcNAc
# Summary of the method: as §1
# [17] = target: Gal(b1-3)GlcNAc(b1-2)Man(a1-3)[GlcNAc(b1-4)][Gal(b1-3)GlcNAc(b1-2)Man(a1-6)]Man(b1-4)GlcNAc(b1-4)GlcNAc
# Summary of the method: as §1
# [18] = target: Gal(b1-3)GlcNAc(b1-2)[Gal(b1-3)GlcNAc(b1-6)]Man(a1-6)[Gal(b1-3)GlcNAc(b1-2)Man(a1-3)]Man(b1-4)GlcNAc(b1-4)GlcNAc
# Summary of the method: as §1
# [19] = target: Gal(b1-3)GlcNAc(b1-3)Gal(b1-3)GlcNAc
# Summary of the method: as §1
# [20] = target: Gal(b1-3)GlcNAc(b1-3)Gal(b1-4)Glc
# Summary of the method: as §1
# [21] = target: Gal(b1-3)GlcNAc(b1-3)Gal(b1-4)GlcNAc
# Summary of the method: as §1
# [22] = target: Gal(b1-3)GlcNAc(b1-3)Gal(b1-4)GlcNAc(b1-2)Man(a1-3)[Gal(b1-3)GlcNAc(b1-3)Gal(b1-4)GlcNAc(b1-2)Man(a1-6)]Man(b1-4)GlcNAc(b1-4)GlcNAc
# Summary of the method: as §1
# [23] = target: Gal(b1-3)GlcNAc(b1-3)Gal(b1-4)GlcNAc(b1-2)[Gal(b1-3)GlcNAc(b1-3)Gal(b1-4)GlcNAc(b1-6)]Man(a1-6)[Gal(b1-3)GlcNAc(b1-3)Gal(b1-4)GlcNAc(b1-2)Man(a1-3)]Man(b1-4)GlcNAc(b1-4)[Fuc(a1-6)]GlcNAc
# Summary of the method: as §1
# [24] = target: Gal(b1-3)GlcNAc(b1-3)Gal(b1-4)GlcNAc(b1-3)Gal(b1-4)GlcNAc(b1-2)[Gal(b1-3)GlcNAc(b1-3)Gal(b1-4)GlcNAc(b1-3)Gal(b1-4)GlcNAc(b1-6)]Man(a1-6)[Gal(b1-3)GlcNAc(b1-3)Gal(b1-4)GlcNAc(b1-3)Gal(b1-4)GlcNAc(b1-2)Man(a1-3)]Man(b1-4)GlcNAc(b1-4)[Fuc(a1-6)]GlcNAc
# Summary of the method: as §1
# [25] = target: Gal(b1-3)GlcNAc(b1-3)Gal(b1-4)GlcNAc(b1-6)[Gal(b1-3)GlcNAc(b1-3)]Gal(b1-4)Glc
# Summary of the method: as §1
# [26] = target: Gal(b1-3)GlcNAc(b1-3)Gal(b1-4)[Fuc(a1-3)]GlcNAc
# Summary of the method: as §1
# [27] = target: Gal(b1-3)GlcNAc(b1-3)Gal(b1-4)[Fuc(a1-3)]GlcNAc(b1-6)[Gal(b1-3)GlcNAc(b1-3)]Gal(b1-4)Glc
# Summary of the method: as §1
# [28] = target: Gal(b1-3)GlcNAc(b1-3)GalNAc
# Summary of the method: as §1
# [29] = target: Gal(b1-3)GlcNAc(b1-6)Gal(b1-4)GlcNAc
# Summary of the method: as §1
# [30] = target: Gal(b1-3)GlcNAc(b1-6)GalNAc
# Summary of the method: as §1
# [31] = target: Gal(b1-3)GlcNAc(b1-6)[Gal(b1-3)]GalNAc
# Summary of the method: as §1
# [32] = target: Gal(b1-3)GlcNAc6S
# Summary of the method: as §1
# [33] = target: Gal(b1-3)[Fuc(a1-4)]GlcNAc
# Summary of the method: as §1
# [34] = target: Gal(b1-3)[Fuc(a1-4)]GlcNAc(b1-2)Man
# Summary of the method: as §1
# [35] = target: Gal(b1-3)[Fuc(a1-4)]GlcNAc(b1-2)Man(a1-3)[Gal(b1-3)[Fuc(a1-4)]GlcNAc(b1-2)Man(a1-6)]Man(b1-4)GlcNAc(b1-4)[Fuc(a1-6)]GlcNAc
# Summary of the method: as §1
# [36] = target: Gal(b1-3)[Fuc(a1-4)]GlcNAc(b1-3)Gal(b1-3)[Fuc(a1-4)]GlcNAc
# Summary of the method: as §1
# [37] = target: Gal(b1-3)[Fuc(a1-4)]GlcNAc(b1-3)Gal(b1-4)[Fuc(a1-3)]GlcNAc
# Summary of the method: as §1
# [38] = target: Gal(b1-3)[Fuc(a1-4)]GlcNAc(b1-6)GalNAc
# Summary of the method: as §1
# [39] = target: Gal(b1-3)[GlcNAc(b1-6)]GalNAc
# Summary of the method: as §1
# [40] = target: Gal(b1-3)[Neu5Ac(a2-6)]GalNAc
# Summary of the method: as §1
# [41] = target: Gal(b1-3)[Neu5Ac(a2-6)]GlcNAc(b1-4)Gal(b1-4)Glc
# Summary of the method: as §1
# [42] = target: Gal(b1-3)[Neu5Ac(b2-6)]GalNAc
# Summary of the method: as §1
# [43] = target: Gal(b1-4)Gal
# Summary of the method: as §1
# [44] = target: Gal(b1-4)GalNAc(a1-3)[Fuc(a1-2)]Gal(b1-4)GlcNAc
# Summary of the method: as §1
# [45] = target: Gal(b1-4)GalNAc(b1-3)[Fuc(a1-2)]Gal(b1-4)GlcNAc
# Summary of the method: as §1
binder,measurement,setting,value
EUL D1A second (Oryza sativa) (protein) GAATACTIGGVPVHTVRVFSAAGEDYCLTVRNGTACLAPKNPRDDYQHWIKDMRHSNKIRDEEGYPAFALVNKVTGEAIKHSTGQGHPVKLVPYNPEYQDESVLWTESKDVGKGFRCIRMVNNIYLNFDAFHGDKDHGGIHDGTEIVLWKWCEGDNQRWKILPWILEQKLISEEDLNSAVDHHHHHH,glycan array binding signal (z-score),[1],-0.669
same,glycan array binding signal (z-score),[2],-0.342
same,glycan array binding signal (z-score),[3],-0.765
same,glycan array binding signal (z-score),[4],-0.524
same,glycan array binding signal (z-score),[5],0.165
same,glycan array binding signal (z-score),[6],-0.273
same,glycan array binding signal (z-score),[7],-0.449
same,glycan array binding signal (z-score),[8],2.08
same,glycan array binding signal (z-score),[9],-0.561
same,glycan array binding signal (z-score),[10],0.005
same,glycan array binding signal (z-score),[11],-0.548
same,glycan array binding signal (z-score),[12],-0.393
same,glycan array binding signal (z-score),[13],0.922
same,glycan array binding signal (z-score),[14],1.1
same,glycan array binding signal (z-score),[15],0.654
same,glycan array binding signal (z-score),[16],-0.425
same,glycan array binding signal (z-score),[17],-0.68
same,glycan array binding signal (z-score),[18],-0.197
same,glycan array binding signal (z-score),[19],1.27
same,glycan array binding signal (z-score),[20],-0.887
same,glycan array binding signal (z-score),[21],0.289
same,glycan array binding signal (z-score),[22],-0.889
same,glycan array binding signal (z-score),[23],4.86
same,glycan array binding signal (z-score),[24],4.47
same,glycan array binding signal (z-score),[25],-0.233
same,glycan array binding signal (z-score),[26],-1.35
same,glycan array binding signal (z-score),[27],-0.953
same,glycan array binding signal (z-score),[28],-1.77
same,glycan array binding signal (z-score),[29],-0.044
same,glycan array binding signal (z-score),[30],0.907
same,glycan array binding signal (z-score),[31],1.99
same,glycan array binding signal (z-score),[32],-0.739
same,glycan array binding signal (z-score),[33],-1.46
same,glycan array binding signal (z-score),[34],0.403
same,glycan array binding signal (z-score),[35],1.94
same,glycan array binding signal (z-score),[36],-1.39
same,glycan array binding signal (z-score),[37],-0.907
same,glycan array binding signal (z-score),[38],0.174
same,glycan array binding signal (z-score),[39],0.344
same,glycan array binding signal (z-score),[40],-0.756
same,glycan array binding signal (z-score),[41],-0.735
same,glycan array binding signal (z-score),[42],-0.858
same,glycan array binding signal (z-score),[43],3.37
same,glycan array binding signal (z-score),[44],-0.663
same,glycan array binding signal (z-score),[45],-1.29

# An excerpt from further up:
binder,measurement,setting,value
EUL D1A second (Oryza sativa) (protein) GAATACTIGGVPVHTVRVFSAAGEDYCLTVRNGTACLAPKNPRDDYQHWIKDMRHSNKIRDEEGYPAFALVNKVTGEAIKHSTGQGHPVKLVPYNPEYQDESVLWTESKDVGKGFRCIRMVNNIYLNFDAFHGDKDHGGIHDGTEIVLWKWCEGDNQRWKILPWILEQKLISEEDLNSAVDHHHHHH,glycan array binding signal (z-score),[35],1.94
same,glycan array binding signal (z-score),[36],-1.39
